From PMC8347620, “Arabidopsis G-Protein β Subunit AGB1 Negatively Regulates DNA Binding of MYB62, a Suppressor in the Gibberellin Pathway”
Results are given in words; binding and its absence hold for the method and conditions named. Some entries that bind do so weakly or less than the wild type. Where a sequence is shown, tags or fusion partners need not be part of it.

B1: Transcription factor MYB62, yeast two-hybrid fusion (AD-MYB62) (protein, UniProt Q9C9G7 1-286)
chain: MENSMKKKKSFKESEDEELRRGPWTLEEDTLLTNYILHNGEGRWNHVAKCAGLKRTGKSCRLRWLNYLKPDIRRGNLTPQEQLLILELHSKWGNRWSKIAQYLPGRTDNEIKNYWRTRVQKQARQLNIESNSDKFFDAVRSFWVPRLIEKMEQNSSTTTTYCCPQNNNNNSLLLPSQSHDSLSMQKDIDYSGFSNIDGSSSTSTCMSHLTTVPHFMDQSNTNIIDGSMCFHEGNVQEFGGYVPGMEDYMVNSDISMECHVADGYSAYEDVTQDPMWNVDDIWQFRE
B2: MBP-MYB62 fusion protein (protein, UniProt Q9C9G7 1-286)
chain: B1 chain

How the values were obtained:
[1] = biological target: T1, G protein β subunit AGB1, yeast two-hybrid fusion (BD-AGB1) (Arabidopsis thaliana) (UniProt P49177); assay: two-hybrid; yeast two-hybrid; growth on SD/-Leu/-Trp/-His/-Ade with or without 40 μg/mL X-α-gal; empty AD and BD vectors as negative controls
T1 sequence: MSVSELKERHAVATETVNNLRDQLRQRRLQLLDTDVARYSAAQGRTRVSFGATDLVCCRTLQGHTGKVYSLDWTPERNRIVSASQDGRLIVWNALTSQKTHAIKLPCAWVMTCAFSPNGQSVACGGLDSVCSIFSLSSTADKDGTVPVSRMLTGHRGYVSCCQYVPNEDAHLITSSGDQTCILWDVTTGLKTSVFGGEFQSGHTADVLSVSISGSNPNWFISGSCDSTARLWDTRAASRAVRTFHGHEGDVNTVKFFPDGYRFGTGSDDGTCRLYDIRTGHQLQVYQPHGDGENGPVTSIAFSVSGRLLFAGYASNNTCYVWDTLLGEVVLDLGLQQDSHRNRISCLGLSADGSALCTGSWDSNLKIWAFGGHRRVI

[2] = biological target: T2, GST-AGB1 fusion protein (Arabidopsis thaliana) (UniProt P49177); assay: pull-down; GST pull-down: GST-AGB1 and maltose-eluted MBP-MYB62 incubated about 8 h at 4 °C in 40 mM HEPES, 10 mM KCl, 0.4 M sucrose, 3 mM MgCl2, 1 mM EDTA, 1 mM DTT; washed 5 times with 1× PBS pH 7.4; Western blot with MBP-tag and GST-tag antibodies; both purified
T2 sequence: T1 sequence

Binder | binding [1] | binding [2]
B1 | binds | –
B2 | – | binds
